These are yes or no findings as the source states them, for the method shown. Binding seen in cells or lysates may run through a third protein. These calls come from enrichment with a bait or labelling near it, and not all partners need be listed.
Target: Stanniocalcin-2 (human (endogenous in human nasopharyngeal carcinoma cell lines 6-10B / CNE1)) (UniProt O76061)
Test: affinity purification with mass spectrometry; immunoprecipitation from cell lysate with anti-STC2 antibody, SDS-PAGE and silver staining, mass spectrometry of the co-precipitated proteins

Chains of the proteins cited; added tags and fusions are not shown. Residues count along the entry.
UniProt O76061, residues 25-302: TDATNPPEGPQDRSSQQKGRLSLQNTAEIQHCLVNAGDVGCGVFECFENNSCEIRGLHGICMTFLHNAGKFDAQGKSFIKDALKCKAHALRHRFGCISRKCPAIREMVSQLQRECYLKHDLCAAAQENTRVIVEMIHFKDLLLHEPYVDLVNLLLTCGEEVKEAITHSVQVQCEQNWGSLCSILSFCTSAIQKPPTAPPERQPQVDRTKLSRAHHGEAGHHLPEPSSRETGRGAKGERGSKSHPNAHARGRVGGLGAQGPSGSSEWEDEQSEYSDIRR
UniProt P05107, residues 23-769: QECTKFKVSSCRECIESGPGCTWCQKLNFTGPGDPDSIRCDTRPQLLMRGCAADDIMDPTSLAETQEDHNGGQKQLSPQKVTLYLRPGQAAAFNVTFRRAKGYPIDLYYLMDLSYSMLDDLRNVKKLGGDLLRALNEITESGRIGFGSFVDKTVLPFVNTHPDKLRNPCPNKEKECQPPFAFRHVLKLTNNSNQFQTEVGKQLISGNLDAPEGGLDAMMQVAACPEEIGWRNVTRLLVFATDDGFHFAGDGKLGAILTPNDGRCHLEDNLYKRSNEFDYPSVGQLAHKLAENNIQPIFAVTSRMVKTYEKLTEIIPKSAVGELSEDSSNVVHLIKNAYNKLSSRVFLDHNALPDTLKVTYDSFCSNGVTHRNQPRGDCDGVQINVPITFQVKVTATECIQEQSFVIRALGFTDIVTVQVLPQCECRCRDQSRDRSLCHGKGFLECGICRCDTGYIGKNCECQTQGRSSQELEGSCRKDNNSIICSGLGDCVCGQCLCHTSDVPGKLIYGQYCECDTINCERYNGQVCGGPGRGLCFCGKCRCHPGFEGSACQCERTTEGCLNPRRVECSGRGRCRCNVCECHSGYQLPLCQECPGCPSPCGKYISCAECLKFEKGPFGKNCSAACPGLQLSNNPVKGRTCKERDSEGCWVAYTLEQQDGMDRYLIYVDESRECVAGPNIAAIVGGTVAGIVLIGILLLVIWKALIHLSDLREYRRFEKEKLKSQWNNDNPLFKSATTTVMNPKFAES

- binding: binds
Substance: integrin β2 (from UniProt P05107 23-769)

— publication PMC8986754
